Hit rate of the full screen: of about 300,000 compounds, about 5,400 (1.8%) were called active. This list was built around the results that the source calls inconclusive (neither active nor inactive); the mix of calls is not that of the screen. The call rests on the fitted dose curve; tested in HEK293 cells. Potencies of inconclusive entries are doubtful fits and often do not repeat.
Test: qHTS for inhibitors of binding or entry into cells for Marburg Virus
Details: Marburg virus pseudotyped entry inhibition, cell reporter; activity change, negative = inhibition: at 37.8 µM (top of the series) unless noted
With `Cc1cccc(NC(=O)c2cccc(C(=O)Nc3cccc(C)n3)c2)n1` the Potency was inconclusive: 1.26 µM [inhibitor, single point].
For `COCCCNC(=O)C1CC(=O)N(CCc2ccccc2)C1` (stereo unspecified), the Potency was inconclusive: 3.26 µM [activator, partial curve, poor fit].
For `CN1/C(=C\C(=O)CSc2nnc(N)s2)C(C)(C)c2ccccc21`, the Potency was inconclusive: 0.562 µM [inhibitor, full curve, poor fit].
For `CCN(CC)CC(O)Cn1c(C)c(-c2ccccc2)c2cc([N+](=O)[O-])ccc21` (stereo unspecified), the Potency was inconclusive: 7.08 µM [inhibitor, partial curve, poor fit].
In the case of `Cc1cc(C)cc(N(CC(=O)NC2CCCC2)C(=O)c2csnn2)c1`, the Potency is reported as inconclusive: 17.8 µM [inhibitor, partial curve, poor fit].
With `COC(=O)c1c(C)[nH]c(C(=O)CN2C(=O)C3CC=CCC3C2=O)c1C` (stereo unspecified) the Potency was inconclusive: 35.5 µM [activator, single point].
With `Cc1cccc(-c2cc3nc4c(c(N5CCC6(CC5)OCCO6)n3n2)CCCC4)c1` the Potency was inconclusive: 29.1 µM [inhibitor, single point].
In the case of `CC(=O)N1CCN(C(=S)c2ccc(-c3ccc(Cl)cc3)o2)CC1`, the Potency is reported as inconclusive: 2.24 µM [activator, full curve].
With `CCOc1cccc(C2C(C#N)=C(N)Oc3cc(C)[nH]c(=O)c32)c1OCC` (stereo unspecified) the “activity change, negative = inhibition” value was inactive: 0.86%.
With `Cc1occc1-c1nnc(SCC(=O)NCc2ccco2)n1CC(C)C` the Potency was inconclusive: 3.55 µM [activator, single point].
For `CC1(C)Cc2c(c(N3CCOCC3)nc3sc4c(=O)[nH]cnc4c23)CS1`, the Potency was “inactive”.
With `O=S(=O)(/C=C/c1ccccc1)NC1CCCCCC1` the Potency was inconclusive: 35.5 µM [activator, single point].
In the case of `COc1ccccc1CN1CCC(n2nccc2NC(=O)CCc2ccccc2)CC1`, the Potency is reported as inconclusive: 35.5 µM [inhibitor, single point].
With `O=C(Nc1cn(-c2ccccc2)nc1-c1cccs1)c1ccco1` the Potency was inconclusive: 35.5 µM [inhibitor, single point].
With `COc1cc(NC(=O)c2ccccc2F)c(OC)cc1NC(=O)CN1CCOCC1` the “activity change, negative = inhibition” value was inactive: 0.757% [at 46.1 µM].
In the case of `O=C(Cc1csc(-c2ccccc2)n1)NCc1ccc(F)cc1`, the “activity change, negative = inhibition” value is reported as inactive: -8.77%.
In the case of `O=C(Nc1ccc(F)cc1)c1ccc(Br)c(S(=O)(=O)N2CCOCC2)c1`, the Potency is reported as inconclusive: 5.01 µM [inhibitor, full curve].
In the case of `COc1ccccc1CNC(=O)C(=O)Nc1ccc(C(=O)N2CCC(C)CC2)cc1`, the Potency is reported as inconclusive: 11.2 µM [inhibitor, partial curve, poor fit].
With `COc1ccccc1C(=O)N1CCN(c2cccc(Cl)c2)CC1` the Potency was inconclusive: 0.891 µM [inhibitor, full curve, poor fit].
In the case of `CCC(C)n1cnc2c(c1=O)c1nc3ccccc3nc1n2-c1ccc2c(c1)OCCO2` (stereo unspecified), the Potency is reported as inconclusive: 29.1 µM [inhibitor, single point].
In the case of `COc1ccc(Br)cc1CNC(=O)Nc1cccs1`, the Potency is reported as inconclusive: 0.231 µM [activator, single point].
With `Oc1ccccc1-c1nc(/C=C/c2ccccc2Cl)no1` the “activity change, negative = inhibition” value was inactive: 20.3% [at 46.1 µM].
For `Cc1ccccc1NC(=O)CCc1c(C)nn(-c2ccc(N3CCCCC3)nn2)c1C`, the Potency was inconclusive: 3.16 µM [activator, single point].
For `c1ccc(C2N3CCCN23)cc1` (stereo unspecified), the Potency was inconclusive: 12.6 µM [activator, partial curve, poor fit].
With `CCc1ccc2[nH]c(=O)c(CN(Cc3nnnn3C3CCCC3)C3CCCCC3)cc2c1` the Potency was inconclusive: 29.1 µM [inhibitor, single point].
For `CCOC(=O)c1nn(-c2ccc(C)cc2)c(C)c1C(C)=O`, the “activity change, negative = inhibition” value was inactive: -6% [at 46.1 µM].
With `O=C(CSc1nnc(-c2ccco2)n1Cc1ccccc1)OC1CCCCC1` the Potency was inconclusive: 0.224 µM [activator, full curve, poor fit].
For `O=S(=O)(/C(=C/c1ccc(C(F)(F)F)cc1)c1nc2ccccc2[nH]1)c1ccccc1`, the Potency was active: 11.2 µM.
For `CSc1ncc(CN2CCC(C(=O)Nc3cccc(-c4cscn4)c3)CC2)cn1`, the Potency was inconclusive: 15.8 µM [inhibitor, single point].
For `COc1cc(-c2nc3sccn3c2Nc2cccc(C)c2)ccc1O`, the “activity change, negative = inhibition” value was inactive: 25.9% [at 46.1 µM].
In the case of `S=C(NCCCc1ccccc1)Nc1ccc(Br)cc1`, the Potency is reported as inconclusive: 35.5 µM [inhibitor, single point].
For `Cc1ccc(-n2c(=O)c3c4c(sc3n(Cc3ccccc3F)c2=O)CCC4)cc1C`, the Potency was inconclusive: 11.2 µM [inhibitor, partial curve, poor fit].
In the case of `O=C(CCCCCNC(=O)N1CCn2c1nc1ccccc12)NCc1ccc(F)cc1`, the “activity change, negative = inhibition” value is reported as inactive: 2.06% [at 46.1 µM].
In the case of `COc1ccccc1N(C(=O)CN1C(=O)c2ccccc2S1(=O)=O)C(C(=O)NCC1CCCO1)c1ccc(F)cc1` (stereo unspecified), the Potency is reported as inconclusive: 3.98 µM [inhibitor, single point].
With `CC(C)/C(=N/Nc1ccccc1[N+](=O)[O-])c1ccccc1` the Potency was inconclusive: 1.78 µM [inhibitor, full curve, poor fit].
In the case of `COc1ccc(NC(=O)N2CCN(CCC#N)CC2)cc1`, the Potency is reported as inconclusive: 31.6 µM [activator, single point].
For `COc1cc2c3nc4n(c(=O)c3n(CC(=O)NCC3CCCO3)c2cc1OC)CCS4` (stereo unspecified), the “activity change, negative = inhibition” value was inactive: 4.21% [at 46.1 µM].
In the case of `COc1ccccc1CNc1ccc([N+](=O)[O-])cc1C`, the Potency is reported as inconclusive: 12.6 µM [inhibitor, single point].
In the case of `COc1ccc(N2CCN(CCOc3ccc4c(C)cc(=O)oc4c3)CC2)cc1`, the Potency is reported as inconclusive: 0.891 µM [inhibitor, single point].
With `CCOC(=O)C(=Cc1ccc(OCc2ccc([N+](=O)[O-])cc2)c(OC)c1)C(=O)OCC` the Potency was inconclusive: 20 µM [inhibitor, single point].
In the case of `CCOc1ccc(CN(C)Cc2cc(=O)oc3c(C)c(C)ccc23)cc1OC`, the Potency is reported as inconclusive: 8.91 µM [inhibitor, partial curve, poor fit].
For `C=CCn1c(SCC(=O)c2[nH]c(C)c(C(=O)OCC)c2C)nc2scc(-c3ccccc3)c2c1=O`, the Potency was inconclusive: 20.6 µM [inhibitor, single point].
For `Cc1ccc(C)c(N2CCN(C(=O)CCCn3ncn4c(cc5occc54)c3=O)CC2)c1`, the Potency was inconclusive: 0.631 µM [activator, partial curve, poor fit].
In the case of `CCOC(=O)C1=C(O)CSC1=Nc1ccc(C)cc1`, the Potency is reported as inconclusive: 8.91 µM [inhibitor, single point].
In the case of `COc1ccc(-c2csc(NC(=O)CSCC(=O)Nc3cc(C)on3)n2)cc1`, the Potency is reported as inconclusive: 11.2 µM [inhibitor, single point].
In the case of `CC(C)(C)OC(=O)NCCC(=O)N/N=C/c1ccc2ncccc2c1`, the “activity change, negative = inhibition” value is reported as inactive: 5.94%.
With `O=C1N(c2ccc(Cl)cc2)C(c2ccc(Cl)cc2)N2CCCN12` (stereo unspecified) the Potency was inconclusive: 5.62 µM [inhibitor, single point].
For `Cc1cc(C)cc(NC(=S)N2CCN(S(=O)(=O)c3ccccc3)CC2)c1`, the Potency was inconclusive: 5.01 µM [inhibitor, full curve].
With `COc1ccc(Cc2[nH]n3c(=O)c(Cl)c(C)nc3c2-c2ccccc2)cc1` the “activity change, negative = inhibition” value was inactive: 2.02% [at 46.1 µM].
In the case of `CC(C)NC(=O)c1ccc2c(c1)nnn2C`, the “activity change, negative = inhibition” value is reported as inactive: 10.2% [at 46.1 µM].
In the case of `O=C(CSc1nnc(C2CC2)n1-c1ccccc1)NCCc1ccc(F)cc1`, the “activity change, negative = inhibition” value is reported as inactive: -2.98%.
For `CN1CCN(CCc2nc3cc(NC(=O)COc4ccc(Cl)cc4)ccc3n2C)CC1`, the Potency was inconclusive: 8.91 µM [inhibitor, partial curve, poor fit].
For `O=C(CSc1ccc(Cl)cc1)NC1=NN(c2ccccc2)C(=O)C1`, the Potency was inconclusive: 7.94 µM [inhibitor, partial curve, poor fit].
With `CNS(=O)(=O)c1cccc(C(=O)OCC(=O)c2ccc3c(c2)OCCO3)c1` the Potency was inconclusive: 31.6 µM [inhibitor, partial curve, poor fit].
With `NC(=O)Nc1cccc(C(F)(F)F)c1` the “activity change, negative = inhibition” value was inactive: -9.89%.
With `O=C(c1ccc(CN2CCc3ccccc3C2)cc1)N1CCN(c2ccc(F)cc2)CC1` the Potency was inconclusive: 12.6 µM [inhibitor, single point].
In the case of `CC1=C[C@@H](c2ccccc2)n2nc(N3C(=O)[C@H]4CC=CC[C@@H]4C3=O)nc2N1`, the “activity change, negative = inhibition” value is reported as inactive: -4.18%.
In the case of `O=C(CC1CCCC1)N1CCN(S(=O)(=O)c2ccc(F)cc2)CC1`, the “activity change, negative = inhibition” value is reported as inactive: -12.9%.
With `Cc1cc(NC(=S)NC(=O)CC(C)C)ccc1Br` the “activity change, negative = inhibition” value was inactive: 11.1%.
With `CCOc1cccc(C2c3c(oc4cc(C)c(C)cc4c3=O)C(=O)N2c2nc(C)c(C)s2)c1` (stereo unspecified) the Potency was inconclusive: 3.55 µM [inhibitor, partial curve, poor fit].
For `COC(=O)c1ccc(Cn2nc(-c3cc(C)ccc3C)ccc2=O)cc1`, the Potency was inconclusive: 35.5 µM [inhibitor, single point].
In the case of `COC(c1ccccc1)c1nnc(CCC(=O)N2CCN(C3CCCC3)CC2)o1` (stereo unspecified), the Potency is reported as inconclusive: 14.1 µM [inhibitor, single point].
With `CCn1c(SCC(=O)Nc2cc(C)ccc2C)nnc1-c1cnccn1` the Potency was inconclusive: 6.51 µM [inhibitor, single point].
In the case of `COc1ccc(CN2CCN(C(=O)c3ccc(S(=O)(=O)N4CCCCCC4)cc3)CC2)cc1F`, the Potency is reported as inconclusive: 11.2 µM [inhibitor, partial curve, poor fit].
In the case of `Brc1ccccc1C1Nc2cccc3cccc(c23)N1`, the Potency is reported as inconclusive: 1 µM [inhibitor, full curve, poor fit].
In the case of `COc1cccc(CN(C)C(=O)Nc2cccc(C(F)(F)F)c2)c1OC`, the Potency is reported as inconclusive: 35.5 µM [inhibitor, single point].

Reference: PubChem BioAssay AID540276 (National Center for Advancing Translational Sciences (NCATS), 2011)
On the % scale 0 is the no-effect control and ±100 the full control effect; potency means the concentration at half of the fitted maximal effect.
